Test results as given in patent US9446039B2, “Aminoheteroaryl compounds as MTH1 inhibitors” (CEMM—FORSCHUNGSZENTRUM FÜR MOLEKULARE MEDIZIN GMBH, priority 2012, dated 2016).
For at least one compound, name, drawing or mass did not settle the structure.

Target: MTH1 (Homo sapiens, UniProt P36639)
Experiment: MTH1 catalytic assay (luminescence-based, PPi from 8-oxo-dGTP hydrolysis, PPiLight)
Assay type: biochemical
Set-up: His-tag (TEV site) (cleaved yes); made in house; host or cells: E. coli BL-21(DE3), vector pETM-11

COc1cc(Nc2c(C#N)cnc3cc(OCCCN4CCN(C)CC4)c(OC)cc23)c(Cl)cc1Cl [bosutinib]
inhibition of MTH1 catalytic activity (in words): does not exhibit any significant MTH1 inhibition
